Laboratory results published in paper PMC4604688.
No constants are given. Whether binding was seen depends on the method and setting. In cells and extracts the contact can be indirect. Some binding calls cover weakened binding; strength is not graded here.

By UniProt entry, the sequences of proteins in these tests, tags left out.
UniProt P19447: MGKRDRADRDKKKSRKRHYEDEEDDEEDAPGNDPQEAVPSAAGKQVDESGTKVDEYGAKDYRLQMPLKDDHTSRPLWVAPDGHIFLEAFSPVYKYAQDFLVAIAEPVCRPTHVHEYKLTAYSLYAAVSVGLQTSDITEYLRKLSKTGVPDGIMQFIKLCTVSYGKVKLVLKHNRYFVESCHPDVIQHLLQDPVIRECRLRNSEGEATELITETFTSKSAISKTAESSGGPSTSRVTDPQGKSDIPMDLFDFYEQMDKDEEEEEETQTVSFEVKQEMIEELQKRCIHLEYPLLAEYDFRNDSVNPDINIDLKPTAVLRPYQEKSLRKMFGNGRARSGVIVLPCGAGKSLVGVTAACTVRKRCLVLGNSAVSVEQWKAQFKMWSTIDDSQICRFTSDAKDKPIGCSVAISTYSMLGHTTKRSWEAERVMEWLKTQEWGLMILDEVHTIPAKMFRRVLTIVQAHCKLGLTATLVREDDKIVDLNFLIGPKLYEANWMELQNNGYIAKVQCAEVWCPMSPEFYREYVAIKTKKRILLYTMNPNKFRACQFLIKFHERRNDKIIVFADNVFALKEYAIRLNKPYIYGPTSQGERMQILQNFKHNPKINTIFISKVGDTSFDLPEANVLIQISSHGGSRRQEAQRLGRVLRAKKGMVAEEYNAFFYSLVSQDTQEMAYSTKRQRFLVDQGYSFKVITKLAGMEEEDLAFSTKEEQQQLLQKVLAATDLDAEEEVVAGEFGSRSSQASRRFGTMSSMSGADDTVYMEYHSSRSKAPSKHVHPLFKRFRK

Key:
[1] = target: p53 (endogenous, p53 wt/wt HCT116) (human (endogenous in HCT116)) (UniProt P04637); test: co-IP; p53 precipitated from cells with scrambled control siRNA, treated for 4 or 8 h with 300 μM 5-FU; blot for XPB
[2] = target: p53 (endogenous, p53 wt/wt HCT116) (human (endogenous in HCT116)) (UniProt P04637); test: co-IP; p53 precipitated from cells with scrambled control siRNA, treated for 1 h with 300 μM 5-FU; blot for p38

| binding [1] | binding [2] | Substance |
| --- | --- | --- |
| binds |  | XPB (DNA helicase of the nucleotide excision repair machinery, component of TFIIH) (from UniProt P19447 1-782) (enzyme) |
|  | binds | p38α kinase (from UniProt Q16539 1-360) (enzyme) |
